Laboratory results reported in US20250206836A1.
No constants are given. Whether binding was seen depends on the method and setting. Some results given as binding are weak or reduced against the parent protein; the word gives no strength. Values belong to the binder of their own block, whether it stands above or below them.

By UniProt entry, the sequences of proteins in these tests, tags left out. Where a name states a change or a piece, a line headed by the entry shows the natural chain unless it says otherwise.
UniProt P16671: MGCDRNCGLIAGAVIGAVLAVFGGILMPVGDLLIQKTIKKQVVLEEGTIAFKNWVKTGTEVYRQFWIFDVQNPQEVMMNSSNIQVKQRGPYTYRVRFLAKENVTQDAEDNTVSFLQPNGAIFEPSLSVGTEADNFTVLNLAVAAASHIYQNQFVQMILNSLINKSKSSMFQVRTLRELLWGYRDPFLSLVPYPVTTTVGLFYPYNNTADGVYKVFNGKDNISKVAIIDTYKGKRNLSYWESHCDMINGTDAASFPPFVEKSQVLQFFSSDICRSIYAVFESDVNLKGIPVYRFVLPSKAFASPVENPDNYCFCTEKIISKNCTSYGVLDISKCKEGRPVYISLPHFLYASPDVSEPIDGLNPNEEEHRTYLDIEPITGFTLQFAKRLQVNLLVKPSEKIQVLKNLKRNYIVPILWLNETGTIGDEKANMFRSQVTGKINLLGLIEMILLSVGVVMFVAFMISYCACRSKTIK
UniProt Q08857: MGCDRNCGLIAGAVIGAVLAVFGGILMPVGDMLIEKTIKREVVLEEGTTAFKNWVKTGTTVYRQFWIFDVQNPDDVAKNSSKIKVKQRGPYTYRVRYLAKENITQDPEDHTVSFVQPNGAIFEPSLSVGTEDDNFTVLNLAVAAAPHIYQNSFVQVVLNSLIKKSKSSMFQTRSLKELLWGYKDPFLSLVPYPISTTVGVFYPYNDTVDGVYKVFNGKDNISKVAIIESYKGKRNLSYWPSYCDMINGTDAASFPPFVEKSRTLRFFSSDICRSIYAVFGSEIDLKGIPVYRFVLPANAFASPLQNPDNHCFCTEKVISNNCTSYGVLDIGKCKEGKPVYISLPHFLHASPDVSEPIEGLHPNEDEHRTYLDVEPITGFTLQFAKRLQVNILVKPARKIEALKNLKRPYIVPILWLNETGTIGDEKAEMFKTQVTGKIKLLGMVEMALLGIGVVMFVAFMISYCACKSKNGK

Experiments:
[1] = molecular target: human CD36 (on HEK 293 or SCC25 cells) (human) (UniProt P16671); assay: FACS on SCC25 cells stably expressing human CD36, anti-human fluorescently labelled secondary antibody, GeoMFI
[2] = molecular target: mouse CD36 protein (mouse) (UniProt Q08857); assay: ELISA, plates coated with mouse CD36 protein, antibody titrated, OD630nm
[3] = molecular target: human CD36 (Sino Biological) (human) (UniProt P16671); assay: ELISA, plates coated with human CD36 (Sino Biological), antibody titrated, OD630nm
[4] = molecular target: human CD36 (Sino Biological) (human) (UniProt P16671); assay: ELISA, plates coated with human CD36
[5] = molecular target: human CD36 (on HEK 293 or SCC25 cells) (human) (UniProt P16671); assay: FACS, SCC25 cells
[6] = molecular target: mouse CD36 protein (mouse) (UniProt Q08857); assay: ELISA, plates coated with mouse CD36
[7] = molecular target: human CD36 (Sino Biological) (human) (UniProt P16671); assay: ELISA
[8] = molecular target: mouse CD36 protein (mouse) (UniProt Q08857); assay: ELISA

- binding [1]: binds
- binding [2]: binds
- binding [3]: binds
- binding [4]: binds
- binding [5]: binds
- binding [6]: binds
B1: 1G03 (antibody, V domains shown)
VH: QVQLKQSGADLVRPGASVKLSCKASGYTFTDYYINWVKQRPGQGLEWIARIYPGSGNTYYNEKFKGKATLTAEKSSSTAYMQLSSLTSEDSAVYFCARGIGGGFGMDYWGQGTSVTVSS
VL: SIVMTQTPKFLLVSAGDRITITCKASQSVSDDVAWYQQKPGQSPKLLIYYASNRYTGVPDRFTGSGYGTDFTFTISTVQAEDLAVYFCQQDYSSPLTFGAGTKLEIK

- binding [1]: binds
- binding [7]: binds
- binding [8]: binds
- binding [2]: binds
- binding [3]: binds
- binding [4]: binds
- binding [5]: binds
- binding [6]: binds
B2: 1G05 (antibody, V domains shown)
VH: B1 VH
VL: B1 VL

- binding [1]: binds
- binding [7]: binds
- binding [8]: binds
- binding [4]: binds
- binding [5]: binds
- binding [6]: binds
B3: 1G07 (antibody, V domains shown)
VH: B1 VH
VL: B1 VL
